Experimental data as given in patent publication US11180783B2, “Method for producing chiral amines” (VITO NV, priority 2017, dated 2021).

What was measured:
TA_v2 = assay type: biochemical; details: Desal-DK membrane
Experimental: Reaction was performed in 600 mL volume containing 2 mg/mL of TA_v2 powder, 250 mM AD 6, 10 mM BA substrate (dissolved in DMSO) and 0.1 mM PLP in 100 mM CHES buffer, pH 9.5. The final DSMO concentration was 5% (v/v). After 16 h of reaction, 550 mL of reaction mixture was transferred into the membrane unit and 2 intermittent nanofiltration tests were performed. The remaining 50 mL of reaction mixture was used as control without filtration. After the first nanofiltration (6 h duration, DESAL® DK, 20 bar), the collected permeate and the retentate were mixed, and 5 mM of additional BA substrate were added. Additional substrate was added also to the control condition. After 16 h of reaction, the second nanofiltration was performed (5 h duration, DuraMem® 200, 20 bar). Reaction permeate and retentate samples were taken after distinct time periods and prepared for quantitative analysis.
Addition of BA (5 mM) was made to the enzymatic tank E-1 after 24 h reaction. The second nanofiltration was run after 39 h reaction (DuraMem® 200 membrane, 20 bar).

[1] = membrane screening: rejection of HMW amino donors; details: 250 mM AD, 0.1 mM PLP, 100 mM CHES pH 9.5

| Molecule | MPPA concentration after nanofiltration (TA_v2) [mM] | MPPA concentration before nanofiltration (TA_v2) [mM] | Rejection % ([1]; Desal-DK-GE) [%] | Rejection % ([1]; Duramem200) [%] | Rejection % ([1]; PuraMem selective) [%] | Rejection % ([1]; Puramem Flux) [%] | Rejection % ([1]; Puramem Performance) [%] | Rejection % ([1]; SolSep-10206) [%] | Rejection % ([1]; Synder NFW) [%] | Rejection % ([1]; Synder NFX) [%] | Rejection % ([1]; Alfalaval NF99) [%] | Rejection % ([1]; Dow NF90) [%] | Rejection % ([1]; GE KH Duracid) [%] |
| --- | --- | --- | --- | --- | --- | --- | --- | --- | --- | --- | --- | --- | --- |
| CC(N)CCc1ccccc1 (stereo not drawn) [1M3P, 1-methyl-3-phenylpropylamine] | 7.3 | 5.9 | – | – | – | – | – | – | – | – | – | – | – |
| Poly(propylene glycol) bis(2-aminopropyl ether) [AD 3] | – | – | 85.0 | 79.7 | <30 | <30 | <30 | <30 | 82.3 | 85.9 | – | – | – |
| O,O′-bis(2-aminopropyl) polypropylene glycol-block-polyethylene glycol-block-polypropylene glycol [AD 6] | – | – | 87.5 | 85.7 | – | – | – | 83.8 | 85.1 | 85.9 | 83.2 | 83.0 | 62.2 |
